± gives the standard deviation of the averaged measurements. The reference is the same well before dosing, and untreated signal decays as well.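 The tumor cells are basal-like or mesenchymal-like triple-negative breast cancer lines cultured without fibroblasts. Reduced red signal indicates lost mitochondrial integrity, serving as a proxy for apoptotic death.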
Legend:
Hs578T = assay: relative JC-1 red fluorescence (viability) vs pre-drug, monoculture (fraction); higher = more viable cancer cells; conditions: coculture fibroblast: none (monoculture)
Description: (§1)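 JC-1 labelled TNBC cells grown in monoculture (density kept equal with unlabelled cancer cells) in 384-well plates in FluoroBrite medium, treated with one of 42 anticancer drugs at 0.1, 1, 10 or 100 uM. JC-1 red fluorescence (mitochondrial integrity, surrogate of apoptotic death) was read by plate reader every 8 h for 72 h. Values are normalised to each well's pre-drug value, with background from alamethicin. The stock of one drug was tenfold lower, so its dose labels may be too high. Monoculture values are repeated alongside each fibroblast plate and are averaged here.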

HCC1143 = assay: as above; conditions: coculture fibroblast: none (monoculture)
Description: as §1

## O=C(O)C(=O)O.[NH-][C@@H]1CCCC[C@H]1[NH-].[Pt+2] [Oxaliplatin]
Hs578T; 0.1 µM, 8 h
  relative JC-1 red fluorescence: 0.853 ± 0.026
Hs578T; 0.1 µM, 16 h
  relative JC-1 red fluorescence: 0.719 ± 0.029
Hs578T; 0.1 µM, 24 h
  relative JC-1 red fluorescence: 0.644 ± 0.077
Hs578T; 0.1 µM, 32 h
  relative JC-1 red fluorescence: 0.566 ± 0.077
Hs578T; 0.1 µM, 40 h
  relative JC-1 red fluorescence: 0.508 ± 0.1
Hs578T; 0.1 µM, 48 h
  relative JC-1 red fluorescence: 0.484 ± 0.12
Hs578T; 0.1 µM, 56 h
  relative JC-1 red fluorescence: 0.451 ± 0.13
Hs578T; 0.1 µM, 64 h
  relative JC-1 red fluorescence: 0.448 ± 0.14
Hs578T; 0.1 µM, 72 h
  relative JC-1 red fluorescence: 0.444 ± 0.14
Hs578T; 1 µM, 8 h
  relative JC-1 red fluorescence: 0.831 ± 0.028
Hs578T; 1 µM, 16 h
  relative JC-1 red fluorescence: 0.721 ± 0.024
Hs578T; 1 µM, 24 h
  relative JC-1 red fluorescence: 0.633 ± 0.051
Hs578T; 1 µM, 32 h
  relative JC-1 red fluorescence: 0.556 ± 0.035
Hs578T; 1 µM, 40 h
  relative JC-1 red fluorescence: 0.499 ± 0.048
Hs578T; 1 µM, 48 h
  relative JC-1 red fluorescence: 0.469 ± 0.072
Hs578T; 1 µM, 56 h
  relative JC-1 red fluorescence: 0.435 ± 0.079
Hs578T; 1 µM, 64 h
  relative JC-1 red fluorescence: 0.425 ± 0.089
Hs578T; 1 µM, 72 h
  relative JC-1 red fluorescence: 0.412 ± 0.095
Hs578T; 10 µM, 8 h
  relative JC-1 red fluorescence: 0.896 ± 0.015
Hs578T; 10 µM, 16 h
  relative JC-1 red fluorescence: 0.712 ± 0.018
Hs578T; 10 µM, 24 h
  relative JC-1 red fluorescence: 0.713 ± 0.015
Hs578T; 10 µM, 32 h
  relative JC-1 red fluorescence: 0.641 ± 0.014
Hs578T; 10 µM, 40 h
  relative JC-1 red fluorescence: 0.607 ± 0.007
Hs578T; 10 µM, 48 h
  relative JC-1 red fluorescence: 0.5872 ± 0.0013
Hs578T; 10 µM, 56 h
  relative JC-1 red fluorescence: 0.566 ± 0.0062
Hs578T; 10 µM, 64 h
  relative JC-1 red fluorescence: 0.5705 ± 0.0032
Hs578T; 10 µM, 72 h
  relative JC-1 red fluorescence: 0.5641 ± 0.0052
Hs578T; 100 µM, 8 h
  relative JC-1 red fluorescence: 0.88689 ± 0.00077
Hs578T; 100 µM, 16 h
  relative JC-1 red fluorescence: 0.815 ± 0.021
Hs578T; 100 µM, 24 h
  relative JC-1 red fluorescence: 0.736 ± 0.037
Hs578T; 100 µM, 32 h
  relative JC-1 red fluorescence: 0.677 ± 0.041
Hs578T; 100 µM, 40 h
  relative JC-1 red fluorescence: 0.634 ± 0.05
Hs578T; 100 µM, 48 h
  relative JC-1 red fluorescence: 0.613 ± 0.06
Hs578T; 100 µM, 56 h
  relative JC-1 red fluorescence: 0.604 ± 0.078
Hs578T; 100 µM, 64 h
  relative JC-1 red fluorescence: 0.603 ± 0.074
Hs578T; 100 µM, 72 h
  relative JC-1 red fluorescence: 0.597 ± 0.082
HCC1143; 0.1 µM, 8 h
  relative JC-1 red fluorescence: 0.8316 ± 0.0078
HCC1143; 0.1 µM, 16 h
  relative JC-1 red fluorescence: 0.7547 ± 0.0073
HCC1143; 0.1 µM, 24 h
  relative JC-1 red fluorescence: 0.6931 ± 0.0061
HCC1143; 0.1 µM, 32 h
  relative JC-1 red fluorescence: 0.6403 ± 0.0018
HCC1143; 0.1 µM, 40 h
  relative JC-1 red fluorescence: 0.5902 ± 0.0032
HCC1143; 0.1 µM, 48 h
  relative JC-1 red fluorescence: 0.5679 ± 0.0041
HCC1143; 0.1 µM, 56 h
  relative JC-1 red fluorescence: 0.5386 ± 0.0021
HCC1143; 0.1 µM, 64 h
  relative JC-1 red fluorescence: 0.5292 ± 0.0034
HCC1143; 0.1 µM, 72 h
  relative JC-1 red fluorescence: 0.521 ± 0.0076
HCC1143; 1 µM, 8 h
  relative JC-1 red fluorescence: 0.8831 ± 0.0039
HCC1143; 1 µM, 16 h
  relative JC-1 red fluorescence: 0.8034 ± 0.00063
HCC1143; 1 µM, 24 h
  relative JC-1 red fluorescence: 0.7551 ± 0.001
HCC1143; 1 µM, 32 h
  relative JC-1 red fluorescence: 0.7092 ± 0.0012
HCC1143; 1 µM, 40 h
  relative JC-1 red fluorescence: 0.676 ± 0.0078
HCC1143; 1 µM, 48 h
  relative JC-1 red fluorescence: 0.6484 ± 0.0034
HCC1143; 1 µM, 56 h
  relative JC-1 red fluorescence: 0.6363 ± 0.0027
HCC1143; 1 µM, 64 h
  relative JC-1 red fluorescence: 0.6211 ± 0.005
HCC1143; 1 µM, 72 h
  relative JC-1 red fluorescence: 0.6106 ± 0.0056
HCC1143; 10 µM, 8 h
  relative JC-1 red fluorescence: 0.9 ± 0.023
HCC1143; 10 µM, 16 h
  relative JC-1 red fluorescence: 0.802 ± 0.019
HCC1143; 10 µM, 24 h
  relative JC-1 red fluorescence: 0.7362 ± 0.0013
HCC1143; 10 µM, 32 h
  relative JC-1 red fluorescence: 0.685 ± 0.01
HCC1143; 10 µM, 40 h
  relative JC-1 red fluorescence: 0.646 ± 0.018
HCC1143; 10 µM, 48 h
  relative JC-1 red fluorescence: 0.611 ± 0.021
HCC1143; 10 µM, 56 h
  relative JC-1 red fluorescence: 0.579 ± 0.03
HCC1143; 10 µM, 64 h
  relative JC-1 red fluorescence: 0.554 ± 0.034
HCC1143; 10 µM, 72 h
  relative JC-1 red fluorescence: 0.537 ± 0.037
HCC1143; 100 µM, 8 h
  relative JC-1 red fluorescence: 0.91 ± 0.052
HCC1143; 100 µM, 16 h
  relative JC-1 red fluorescence: 0.791 ± 0.067
HCC1143; 100 µM, 24 h
  relative JC-1 red fluorescence: 0.693 ± 0.067
HCC1143; 100 µM, 32 h
  relative JC-1 red fluorescence: 0.629 ± 0.071
HCC1143; 100 µM, 40 h
  relative JC-1 red fluorescence: 0.593 ± 0.073
HCC1143; 100 µM, 48 h
  relative JC-1 red fluorescence: 0.57 ± 0.083
HCC1143; 100 µM, 56 h
  relative JC-1 red fluorescence: 0.545 ± 0.086
HCC1143; 100 µM, 64 h
  relative JC-1 red fluorescence: 0.529 ± 0.072
HCC1143; 100 µM, 72 h
  relative JC-1 red fluorescence: 0.52 ± 0.066

— the supplement of paper PMC6078165
